From US20180214542A1
These are yes or no findings as the source states them, for the method shown. Some results given as binding are weak or reduced against the parent protein; the word gives no strength.

Chains of the proteins cited; added tags and fusions are not shown.
UniProt P49682: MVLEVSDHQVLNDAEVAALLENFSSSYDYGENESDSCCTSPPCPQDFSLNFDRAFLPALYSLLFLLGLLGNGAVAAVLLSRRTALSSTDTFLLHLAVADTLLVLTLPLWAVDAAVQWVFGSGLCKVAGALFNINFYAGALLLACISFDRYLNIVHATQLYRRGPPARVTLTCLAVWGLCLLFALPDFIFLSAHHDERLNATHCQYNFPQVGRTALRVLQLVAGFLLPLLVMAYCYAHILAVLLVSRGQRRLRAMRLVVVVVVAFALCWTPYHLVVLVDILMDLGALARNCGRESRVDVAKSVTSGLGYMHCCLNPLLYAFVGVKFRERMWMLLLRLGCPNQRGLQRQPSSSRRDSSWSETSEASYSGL

B1: 53Hu37 variant VH S103Y / VL N30R/S92R (antibody, V domains shown)
VH: EVQLLESGGGLVQPGGSLRLSCAASGFTFTSYAMSWVRQAPGKGLEWVATISHGGTYTYYPDSVKGRFTISRDNAKNTLYLQMNSLRAEDTAVYYCARHPIYYGNYQGYFDYWGQGTLVTVSS
VL: DIQLTQSPSFLSASVGDRVTITCRASSGVRYLYWYQQKPGKAPKLWIYFTSTLASGVPSRFSGSGSGNEYTLTISSLQPEDFATYYCQQFTRSPYTFGQGTKLEIK
B2: 53Hu37 variant VH G54K/N105F / VL 53Hu37 (antibody, V domains shown)
VH: EVQLLESGGGLVQPGGSLRLSCAASGFTFTSYAMSWVRQAPGKGLEWVATISHKGTYTYYPDSVKGRFTISRDNAKNTLYLQMNSLRAEDTAVYYCARHPIYSGFYQGYFDYWGQGTLVTVSS
VL: DIQLTQSPSFLSASVGDRVTITCRASSGVNYLYWYQQKPGKAPKLWIYFTSTLASGVPSRFSGSGSGNEYTLTISSLQPEDFATYYCQQFTSSPYTFGQGTKLEIK
B3: 53Hu37 variant VH G54R/T56R/N105F / VL T91R (antibody, V domains shown)
VH: EVQLLESGGGLVQPGGSLRLSCAASGFTFTSYAMSWVRQAPGKGLEWVATISHRGRYTYYPDSVKGRFTISRDNAKNTLYLQMNSLRAEDTAVYYCARHPIYSGFYQGYFDYWGQGTLVTVSS
VL: DIQLTQSPSFLSASVGDRVTITCRASSGVNYLYWYQQKPGKAPKLWIYFTSTLASGVPSRFSGSGSGNEYTLTISSLQPEDFATYYCQQFRSSPYTFGQGTKLEIK
B4: 53Hu37 variant VH H53R/N105Q / VL 53Hu37 (antibody, V domains shown)
VH: EVQLLESGGGLVQPGGSLRLSCAASGFTFTSYAMSWVRQAPGKGLEWVATISRGGTYTYYPDSVKGRFTISRDNAKNTLYLQMNSLRAEDTAVYYCARHPIYSGQYQGYFDYWGQGTLVTVSS
VL: DIQLTQSPSFLSASVGDRVTITCRASSGVNYLYWYQQKPGKAPKLWIYFTSTLASGVPSRFSGSGSGNEYTLTISSLQPEDFATYYCQQFTSSPYTFGQGTKLEIK
B5: 53Hu37 variant VH T56R/N105F / VL N30R/S92R (antibody, V domains shown)
VH: EVQLLESGGGLVQPGGSLRLSCAASGFTFTSYAMSWVRQAPGKGLEWVATISHGGRYTYYPDSVKGRFTISRDNAKNTLYLQMNSLRAEDTAVYYCARHPIYSGFYQGYFDYWGQGTLVTVSS
VL: DIQLTQSPSFLSASVGDRVTITCRASSGVRYLYWYQQKPGKAPKLWIYFTSTLASGVPSRFSGSGSGNEYTLTISSLQPEDFATYYCQQFTRSPYTFGQGTKLEIK
B6: 53Hu37 variant VH G54K/T56K/N105F / VL S92R (antibody, V domains shown)
VH: EVQLLESGGGLVQPGGSLRLSCAASGFTFTSYAMSWVRQAPGKGLEWVATISHKGKYTYYPDSVKGRFTISRDNAKNTLYLQMNSLRAEDTAVYYCARHPIYSGFYQGYFDYWGQGTLVTVSS
VL: DIQLTQSPSFLSASVGDRVTITCRASSGVNYLYWYQQKPGKAPKLWIYFTSTLASGVPSRFSGSGSGNEYTLTISSLQPEDFATYYCQQFTRSPYTFGQGTKLEIK
B7: 53Hu37 variant VH G54R/T56R/N105F / VL N30R/S92R (antibody, V domains shown)
VH: EVQLLESGGGLVQPGGSLRLSCAASGFTFTSYAMSWVRQAPGKGLEWVATISHRGRYTYYPDSVKGRFTISRDNAKNTLYLQMNSLRAEDTAVYYCARHPIYSGFYQGYFDYWGQGTLVTVSS
VL: DIQLTQSPSFLSASVGDRVTITCRASSGVRYLYWYQQKPGKAPKLWIYFTSTLASGVPSRFSGSGSGNEYTLTISSLQPEDFATYYCQQFTRSPYTFGQGTKLEIK
B8: 53Hu37 variant VH G54K/T56K/N105F / VL 53Hu37 (antibody, V domains shown)
VH: EVQLLESGGGLVQPGGSLRLSCAASGFTFTSYAMSWVRQAPGKGLEWVATISHKGKYTYYPDSVKGRFTISRDNAKNTLYLQMNSLRAEDTAVYYCARHPIYSGFYQGYFDYWGQGTLVTVSS
VL: DIQLTQSPSFLSASVGDRVTITCRASSGVNYLYWYQQKPGKAPKLWIYFTSTLASGVPSRFSGSGSGNEYTLTISSLQPEDFATYYCQQFTSSPYTFGQGTKLEIK
B9: 53Hu37 variant VH G54R/N105F / VL 53Hu37 (antibody, V domains shown)
VH: EVQLLESGGGLVQPGGSLRLSCAASGFTFTSYAMSWVRQAPGKGLEWVATISHRGTYTYYPDSVKGRFTISRDNAKNTLYLQMNSLRAEDTAVYYCARHPIYSGFYQGYFDYWGQGTLVTVSS
VL: DIQLTQSPSFLSASVGDRVTITCRASSGVNYLYWYQQKPGKAPKLWIYFTSTLASGVPSRFSGSGSGNEYTLTISSLQPEDFATYYCQQFTSSPYTFGQGTKLEIK
B10: 53Hu37 variant VH G54R/N105W / VL 53Hu37 (antibody, V domains shown)
VH: EVQLLESGGGLVQPGGSLRLSCAASGFTFTSYAMSWVRQAPGKGLEWVATISHRGTYTYYPDSVKGRFTISRDNAKNTLYLQMNSLRAEDTAVYYCARHPIYSGWYQGYFDYWGQGTLVTVSS
VL: DIQLTQSPSFLSASVGDRVTITCRASSGVNYLYWYQQKPGKAPKLWIYFTSTLASGVPSRFSGSGSGNEYTLTISSLQPEDFATYYCQQFTSSPYTFGQGTKLEIK
B11: 53Hu37 variant VH G54R/T56R/N105F / VL 53Hu37 (antibody, V domains shown)
VH: EVQLLESGGGLVQPGGSLRLSCAASGFTFTSYAMSWVRQAPGKGLEWVATISHRGRYTYYPDSVKGRFTISRDNAKNTLYLQMNSLRAEDTAVYYCARHPIYSGFYQGYFDYWGQGTLVTVSS
VL: DIQLTQSPSFLSASVGDRVTITCRASSGVNYLYWYQQKPGKAPKLWIYFTSTLASGVPSRFSGSGSGNEYTLTISSLQPEDFATYYCQQFTSSPYTFGQGTKLEIK
B12: 53Hu37 variant VH T56R/N105F / VL S92R (antibody, V domains shown)
VH: EVQLLESGGGLVQPGGSLRLSCAASGFTFTSYAMSWVRQAPGKGLEWVATISHGGRYTYYPDSVKGRFTISRDNAKNTLYLQMNSLRAEDTAVYYCARHPIYSGFYQGYFDYWGQGTLVTVSS
VL: DIQLTQSPSFLSASVGDRVTITCRASSGVNYLYWYQQKPGKAPKLWIYFTSTLASGVPSRFSGSGSGNEYTLTISSLQPEDFATYYCQQFTRSPYTFGQGTKLEIK
B13: 53Hu37 variant VH G54R/N105F / VL N30R/S92R (antibody, V domains shown)
VH: EVQLLESGGGLVQPGGSLRLSCAASGFTFTSYAMSWVRQAPGKGLEWVATISHRGTYTYYPDSVKGRFTISRDNAKNTLYLQMNSLRAEDTAVYYCARHPIYSGFYQGYFDYWGQGTLVTVSS
VL: DIQLTQSPSFLSASVGDRVTITCRASSGVRYLYWYQQKPGKAPKLWIYFTSTLASGVPSRFSGSGSGNEYTLTISSLQPEDFATYYCQQFTRSPYTFGQGTKLEIK
B14: 53Hu37 variant VH Y102H / VL S92R (antibody, V domains shown)
VH: EVQLLESGGGLVQPGGSLRLSCAASGFTFTSYAMSWVRQAPGKGLEWVATISHGGTYTYYPDSVKGRFTISRDNAKNTLYLQMNSLRAEDTAVYYCARHPIHSGNYQGYFDYWGQGTLVTVSS
VL: DIQLTQSPSFLSASVGDRVTITCRASSGVNYLYWYQQKPGKAPKLWIYFTSTLASGVPSRFSGSGSGNEYTLTISSLQPEDFATYYCQQFTRSPYTFGQGTKLEIK
B15: 53Hu37 variant VH T56K/N105W / VL S92R (antibody, V domains shown)
VH: EVQLLESGGGLVQPGGSLRLSCAASGFTFTSYAMSWVRQAPGKGLEWVATISHGGKYTYYPDSVKGRFTISRDNAKNTLYLQMNSLRAEDTAVYYCARHPIYSGWYQGYFDYWGQGTLVTVSS
VL: DIQLTQSPSFLSASVGDRVTITCRASSGVNYLYWYQQKPGKAPKLWIYFTSTLASGVPSRFSGSGSGNEYTLTISSLQPEDFATYYCQQFTRSPYTFGQGTKLEIK
B16: 53Hu37 variant VH N105F / VL N30R/S92R (antibody, V domains shown)
VH: EVQLLESGGGLVQPGGSLRLSCAASGFTFTSYAMSWVRQAPGKGLEWVATISHGGTYTYYPDSVKGRFTISRDNAKNTLYLQMNSLRAEDTAVYYCARHPIYSGFYQGYFDYWGQGTLVTVSS
VL: DIQLTQSPSFLSASVGDRVTITCRASSGVRYLYWYQQKPGKAPKLWIYFTSTLASGVPSRFSGSGSGNEYTLTISSLQPEDFATYYCQQFTRSPYTFGQGTKLEIK
B17: 53Hu37 variant VH T56R/N105F / VL 53Hu37 (antibody, V domains shown)
VH: EVQLLESGGGLVQPGGSLRLSCAASGFTFTSYAMSWVRQAPGKGLEWVATISHGGRYTYYPDSVKGRFTISRDNAKNTLYLQMNSLRAEDTAVYYCARHPIYSGFYQGYFDYWGQGTLVTVSS
VL: DIQLTQSPSFLSASVGDRVTITCRASSGVNYLYWYQQKPGKAPKLWIYFTSTLASGVPSRFSGSGSGNEYTLTISSLQPEDFATYYCQQFTSSPYTFGQGTKLEIK

Target: recombinant human CXCR3 (human) (UniProt P49682)
Assay: Biacore, binding avidity to recombinant human CXCR3

binding, binds:
B1, B2, B3, B4, B5, B6, B7, B8, B9, B10, B11, B12, B13, B14, B15, B16, B17
